Measurements reported in PubChem BioAssay AID652272 (Drosophila RNAi Screening Center, 2013).
The deposit covers about 21,000 reagents; this is a random part of those with a known target gene and a result. In the full data, 503 (2.4%) are marked active. 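Raw plate light values, not normalised; calls rest on replicate z-scores that were not deposited; hits include reporter decreases as well as increases.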 Reagents against one gene are numbered here. Names joined by + are all predicted targets of the reagent. Not given: the amount of reagent, the time to read-out.

- Purpose: 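Finding fly genes that regulate Hedgehog signal transduction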 (primary screen)
- Cells: Drosophila clone 8 (Cl8) cells
- Reagent: long dsRNA against Drosophila genes
- Detection: 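Firefly light from a Hedgehog-responsive ptc promoter reporter and Renilla reference light, both read on a plate reader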
- Direction: firefly Hh reporter signal: higher = more ptc reporter light; Renilla reference signal: higher = more Renilla control light
- Hit rule: 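Hit when the z-score averaged over two replicates is under -2 or over +3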
- Calls: active = hit: reporter lowered or raised; inactive = not a hit

Tsp29Fb → firefly Hh reporter signal, replicate 1 = 1.03e5; firefly Hh reporter signal, replicate 2 = 46214; Renilla reference signal, replicate 1 = 2973; Renilla reference signal, replicate 2 = 6018; call = inactive
ND-ASHI → firefly Hh reporter signal, replicate 1 = 1.05e5; firefly Hh reporter signal, replicate 2 = 3.62e5; Renilla reference signal, replicate 1 = 3981; Renilla reference signal, replicate 2 = 12695; call = inactive
Tes → firefly Hh reporter signal, replicate 1 = 92628; firefly Hh reporter signal, replicate 2 = 77136; Renilla reference signal, replicate 1 = 2489; Renilla reference signal, replicate 2 = 5264; call = inactive
CG15747 → firefly Hh reporter signal, replicate 1 = 70578; firefly Hh reporter signal, replicate 2 = 60088; Renilla reference signal, replicate 1 = 2755; Renilla reference signal, replicate 2 = 1841; call = inactive
CG13137 → firefly Hh reporter signal, replicate 1 = 91626; firefly Hh reporter signal, replicate 2 = 52731; Renilla reference signal, replicate 1 = 2537; Renilla reference signal, replicate 2 = 5208; call = inactive
Grl62c → firefly Hh reporter signal, replicate 1 = 1.22e5; firefly Hh reporter signal, replicate 2 = 2.21e5; Renilla reference signal, replicate 1 = 3446; Renilla reference signal, replicate 2 = 10273; call = inactive
CheA87a → firefly Hh reporter signal, replicate 1 = 99292; firefly Hh reporter signal, replicate 2 = 95680; Renilla reference signal, replicate 1 = 2656; Renilla reference signal, replicate 2 = 2322; call = inactive
Trpm → firefly Hh reporter signal, replicate 1 = 94456; firefly Hh reporter signal, replicate 2 = 58391; Renilla reference signal, replicate 1 = 3849; Renilla reference signal, replicate 2 = 2294; call = inactive
zfh1 #1 → firefly Hh reporter signal, replicate 1 = 5.82e5; firefly Hh reporter signal, replicate 2 = 2.72e5; Renilla reference signal, replicate 1 = 28314; Renilla reference signal, replicate 2 = 5452; call = inactive
zfh1 #2 → firefly Hh reporter signal, replicate 1 = 1.13e5; firefly Hh reporter signal, replicate 2 = 1.21e5; Renilla reference signal, replicate 1 = 1667; Renilla reference signal, replicate 2 = 2075; call = active
alphaTub84B → firefly Hh reporter signal, replicate 1 = 84737; firefly Hh reporter signal, replicate 2 = 83277; Renilla reference signal, replicate 1 = 3692; Renilla reference signal, replicate 2 = 2435; call = inactive
blanks → firefly Hh reporter signal, replicate 1 = 81673; firefly Hh reporter signal, replicate 2 = 81211; Renilla reference signal, replicate 1 = 4832; Renilla reference signal, replicate 2 = 5378; call = inactive

Called active (from the list above):
zfh1 #2 → firefly Hh reporter signal, replicate 1 = 1.13e5; firefly Hh reporter signal, replicate 2 = 1.21e5; Renilla reference signal, replicate 1 = 1667; Renilla reference signal, replicate 2 = 2075; call = active

The results go on.
Hsc70-2 → firefly Hh reporter signal, replicate 1 = 79143; firefly Hh reporter signal, replicate 2 = 50368; Renilla reference signal, replicate 1 = 2424; Renilla reference signal, replicate 2 = 1571; call = inactive
Ir87a → firefly Hh reporter signal, replicate 1 = 1.50e5; firefly Hh reporter signal, replicate 2 = 1.20e5; Renilla reference signal, replicate 1 = 5229; Renilla reference signal, replicate 2 = 3937; call = inactive
CG13689 → firefly Hh reporter signal, replicate 1 = 1.04e5; firefly Hh reporter signal, replicate 2 = 84136; Renilla reference signal, replicate 1 = 2812; Renilla reference signal, replicate 2 = 2065; call = inactive
CG7215 + Prx5 #1 → firefly Hh reporter signal, replicate 1 = 5.52e5; firefly Hh reporter signal, replicate 2 = 77651; Renilla reference signal, replicate 1 = 29760; Renilla reference signal, replicate 2 = 1852; call = inactive
CG7215 + Prx5 #2 → firefly Hh reporter signal, replicate 1 = 1.56e5; firefly Hh reporter signal, replicate 2 = 70620; Renilla reference signal, replicate 1 = 5670; Renilla reference signal, replicate 2 = 1987; call = inactive
CG7551 → firefly Hh reporter signal, replicate 1 = 62944; firefly Hh reporter signal, replicate 2 = 44960; firefly Hh reporter signal, replicate 3 = 52848; Renilla reference signal, replicate 1 = 3979; Renilla reference signal, replicate 2 = 3114; call = inactive
CG9222 → firefly Hh reporter signal, replicate 1 = 1.06e5; firefly Hh reporter signal, replicate 2 = 55018; Renilla reference signal, replicate 1 = 2657; Renilla reference signal, replicate 2 = 5444; call = inactive
cerv → firefly Hh reporter signal, replicate 1 = 45040; firefly Hh reporter signal, replicate 2 = 2.49e5; Renilla reference signal, replicate 1 = 1597; Renilla reference signal, replicate 2 = 9616; call = inactive
sas → firefly Hh reporter signal, replicate 1 = 69156; firefly Hh reporter signal, replicate 2 = 74380; Renilla reference signal, replicate 1 = 2779; Renilla reference signal, replicate 2 = 2448; call = inactive
